No constants are given. Whether binding was seen depends on the method and setting. For some assays here: Binding seen in cells or lysates may run through a third protein. Some results given as binding are weak or reduced against the parent protein; the word gives no strength. For some assays here: Sequences can lack the tags named with a protein.

The chains behind the UniProt entries cited, without tags or fusion partners. Residues count along the entry.
UniProt Q5NCH9, residues 24-871: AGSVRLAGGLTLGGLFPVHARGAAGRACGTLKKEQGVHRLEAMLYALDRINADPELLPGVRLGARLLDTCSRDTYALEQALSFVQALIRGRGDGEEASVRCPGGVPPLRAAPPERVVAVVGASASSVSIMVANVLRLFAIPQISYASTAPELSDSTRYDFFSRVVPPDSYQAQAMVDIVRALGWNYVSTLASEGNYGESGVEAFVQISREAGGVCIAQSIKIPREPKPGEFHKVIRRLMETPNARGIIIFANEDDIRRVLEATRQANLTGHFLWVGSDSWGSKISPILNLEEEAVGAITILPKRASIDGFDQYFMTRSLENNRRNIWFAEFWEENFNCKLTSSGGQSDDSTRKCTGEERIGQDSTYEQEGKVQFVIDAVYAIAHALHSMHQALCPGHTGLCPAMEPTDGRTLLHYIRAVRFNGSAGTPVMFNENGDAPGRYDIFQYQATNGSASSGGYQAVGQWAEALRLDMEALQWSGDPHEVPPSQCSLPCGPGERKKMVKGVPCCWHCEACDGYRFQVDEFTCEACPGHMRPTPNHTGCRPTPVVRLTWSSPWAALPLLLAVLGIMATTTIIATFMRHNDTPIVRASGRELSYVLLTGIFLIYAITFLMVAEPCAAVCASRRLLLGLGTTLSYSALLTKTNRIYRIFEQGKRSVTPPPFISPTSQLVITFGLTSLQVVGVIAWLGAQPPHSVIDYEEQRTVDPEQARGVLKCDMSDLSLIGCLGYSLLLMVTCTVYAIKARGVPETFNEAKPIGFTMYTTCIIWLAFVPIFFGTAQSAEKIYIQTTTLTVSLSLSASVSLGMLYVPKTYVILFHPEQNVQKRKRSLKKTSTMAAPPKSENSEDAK

These results are taken from paper PMC8671642.

Assay [1] addresses mouse mGluR6 (metabotropic glutamate receptor 6), WT, untagged (mouse) (UniProt Q5NCH9). The assay is described as follows: SDS-PAGE and western blot (size of the band); input lysate of transfected HEK cells resolved by SDS-PAGE, blotted with mGluR6 mAb 312. (In general: In western blotting, separated proteins are transferred to a membrane and probed.)
Assay [2] addresses T1, extracellular domain of mouse ELFN1 (a.a. 1-418) fused to human Fc (mouse) (UniProt Q8C8T7).
T1 sequence: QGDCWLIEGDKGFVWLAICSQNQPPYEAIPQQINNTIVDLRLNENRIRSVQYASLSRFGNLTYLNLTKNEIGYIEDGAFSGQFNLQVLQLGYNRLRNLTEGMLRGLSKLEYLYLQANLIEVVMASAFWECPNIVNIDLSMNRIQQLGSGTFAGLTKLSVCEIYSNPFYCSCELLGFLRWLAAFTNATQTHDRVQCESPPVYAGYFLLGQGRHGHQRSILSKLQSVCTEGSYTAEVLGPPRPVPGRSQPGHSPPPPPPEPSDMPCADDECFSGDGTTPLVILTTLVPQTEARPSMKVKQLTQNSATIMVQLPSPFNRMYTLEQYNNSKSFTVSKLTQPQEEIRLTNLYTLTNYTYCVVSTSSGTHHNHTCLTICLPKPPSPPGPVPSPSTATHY
The experiment in a line: pull-down; Fc fusion secreted into media and bound to protein G agarose beads; incubated with lysate of transfected HEK cells (PBS, 1% Triton X-100, 50 mM supplemental NaCl) at 4 °C for 90 min; beads washed four times; blotted with mGluR6 mAb 312; only the target purified.

With “mouse mGluR6 (metabotropic glutamate receptor 6), WT, untagged (from UniProt Q5NCH9 24-871)”, the binding entry in assay [1] and in assay [2] was “binds” each time.
